The numbers were not newly measured in patent US20140058108A1 (SINOXA PHARMA UG, priority 2010, published 2014), which cites them from elsewhere.

The chains behind the UniProt entries cited, without tags or fusion partners.
UniProt P30994, whole entry: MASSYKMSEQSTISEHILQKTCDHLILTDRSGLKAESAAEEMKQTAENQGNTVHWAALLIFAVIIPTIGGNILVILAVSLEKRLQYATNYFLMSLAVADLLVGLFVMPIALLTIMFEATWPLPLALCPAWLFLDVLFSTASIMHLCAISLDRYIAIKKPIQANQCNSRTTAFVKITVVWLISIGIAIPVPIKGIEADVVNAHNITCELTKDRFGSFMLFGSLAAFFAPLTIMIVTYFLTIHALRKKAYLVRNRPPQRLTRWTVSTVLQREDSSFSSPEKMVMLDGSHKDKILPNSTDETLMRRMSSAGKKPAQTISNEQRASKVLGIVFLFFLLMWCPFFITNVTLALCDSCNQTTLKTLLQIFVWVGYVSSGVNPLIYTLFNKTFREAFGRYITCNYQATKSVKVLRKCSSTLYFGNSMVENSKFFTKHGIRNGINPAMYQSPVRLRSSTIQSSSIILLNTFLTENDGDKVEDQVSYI

This data set concerns the target 5-HT2B receptors (isolated rat stomachs) (Rattus norvegicus, UniProt P30994). Particulars: in vitro, isolated rat stomachs [Villalon 2003; Podvalova 1972]; cited from earlier work.

On to `CCN(CC)C(=O)N[C@H]1C=C2c3cccc4[nH]cc(c34)C[C@H]2N(C)C1` [Lisuride, 3-(9,10-didehydro-6-methylergoline-8alpha-yl)-1,1-diethylurea], for which the anti-serotoninergic potency entry is “especially high anti-serotoninergic potency”.
